Consider 39 substances from patent EP4610269A1 (3B Pharmaceuticals GmbH, priority 2024, dated 2025).

The nature of series [1]: general procedure: Fmoc solid-phase peptide synthesis; DEG Rink amide. The following applies: whole synthesis.
Series [2] is described as follows: general procedure: Fmoc solid-phase peptide synthesis; polystyrene resin (PS or DEG) with Rink amide, 2-chloro-trityl or FMPB linker; Rink amide DEG resin loading 0.5 - 0.7 mm. Particulars: for conjugation yield: conjugation step; for step yield: late stage modification step.
Series [3] can be described thus: general procedure: Fmoc solid-phase peptide synthesis; PS 2-chlorotrityl. Particulars: whole synthesis, scale 50 µmol.
Series [4] in a line: general procedure: Fmoc solid-phase peptide synthesis; PS cysteamine 2-chlorotrityl. Particulars: whole synthesis, scale 25 µmol.
A short description of series [5]: general procedure: Fmoc solid-phase peptide synthesis; PS FMPB (ethyl amine). The following applies: whole synthesis, scale 25 µmol.
Series [6] in a line: general procedure: Fmoc solid-phase peptide synthesis; PS 2-chlorotrityl (L-cysteinol). Particulars: whole synthesis, scale 25 µmol.
A short description of series [7]: general procedure: Fmoc solid-phase peptide synthesis; PS 2-chloro trityl. The following applies: whole synthesis, scale 25 µmol.
The nature of series [8]: general procedure: Fmoc solid-phase peptide synthesis; DEG Rink amide (loading 0.18 mmol/g). Particulars: whole synthesis, scale 50 µmol, side-chain lactam ring.
The mark [9] stands for this setting: scale 25 µmol, one disulfide bridge.
Setting [10] is: scale 50 µmol, one disulfide bridge.
The mark [11] stands for this setting: scale 50 µmol, one disulfide bridge, sequence written open.

For some assays here: Strings that start with PEPTIDE1 are HELM notation: dots part the residues, brackets hold end groups and non-standard residues.

In the case of “AGLU-Glutar-Nva-[Cys-Cit-Gln-Tyr-Phe-Pro-Hyp-Ile-Nva-Cys]-NHz”, in series [1] (setting [9]), the isolated mass worked out at 7.85 mg and the isolated yield is on record as 19.4%.

Regarding “Butoc-[Cys-Thr-Lys(AF488-Ttds)-Dopa-Phe-4Cfp-Hyp-Ile-Nva-Cys]-NH2”, the conjugation yield in series [2] (one disulfide bridge) is on record as 17.2% of theory.

With “Butoc-[Cys-Thr-Lys(DOTA)-Dopa-Phe-4Cfp-Hyp-Ile-Nva-Cys]-NH2”, the step yield in series [2] (one disulfide bridge) was found to be 91.3%.

In series [1] (setting [10]), “Butoc-[Cys-Thr-Lys(DOTA)-Tyr-Phe-4Cfp-Hyp-Ile-Dmdp-Cys]-NH2” yielded an isolated mass of 5.31 mg and an isolated yield of 6.2%.

For the substance “Butoc-[Cys-Thr-Lys(H-Ttds)-Tyr-Phe-4Cfp-Hyp-Ile-Nva-Cys]-NH2”, in series [1] (scale 100 µmol), the isolated mass is reported as 24.9 mg and the isolated yield is listed as 15.4% of theory.

With “PEPTIDE1{[Butoc].C.T.K.Y.F.[4Cfp].[Hyp].I.[Nva].C.[am]}|PEPTIDE2{[DOTA].[Kzw]}$PEPTIDE1,PEPTIDE1,2:R3-11:R3|PEPTIDE1,PEPTIDE2,4:R3-2:R2$$$V2.0”, in series [1] (scale 50 µmol), the isolated mass was determined as 13.61 mg and the isolated yield is 13.8%.

In series [1] (scale 50 µmol), “PEPTIDE1{[Butoc].C.T.K.Y.F.[4Cfp].[Hyp].I.[Nva].C.[am]}|PEPTIDE2{[DOTA].[dD]}$PEPTIDE1,PEPTIDE1,2:R3-11:R3|PEPTIDE1,PEPTIDE2,4:R3-2:R2$$$V2.0” displayed an isolated mass of 6.99 mg and an isolated yield of 7.8%.

With “PEPTIDE1{[Butoc].[Cys].T.[Lys_DOTA_].Y.F.[4Cfp].[Hyp].I.[Nva].[Cys].[Bal]}$PEPTIDE1,PEPTIDE1,2:R3-11:R3$$$V2.0”, in series [3], the isolated mass is reported as 15.38 mg and the isolated yield is listed as 18.4%.

In series [1] (scale 50 µmol), “PEPTIDE1{[Butoc].[Cys].T.[Orn_DOTA_].[Ay3].F.[4Cfp].[Hyp].I.[Nva].[Cys].[am]}$PEPTIDE1,PEPTIDE1,2:R3-11:R3$$$V2.0” came in with an isolated mass of 1.21 mg and an isolated yield of 1.4%.

In series [1] (scale 50 µmol), “PEPTIDE1{[Butoc].[Cys].T.[Orn_DOTA_].[My].F.[4Cfp].[Hyp].I.[Nva].[Cys].[am]}$PEPTIDE1,PEPTIDE1,2:R3-11:R3$$$V2.0” came in with an isolated mass of 10.65 mg and an isolated yield of 12.7%.

In series [1] (scale 50 µmol), “PEPTIDE1{[Butoc].[Cys].T.[Orn_DOTA_].[Pcnf].F.[4Cfp].[Hyp].I.[Nva].[Cys].[am]}$PEPTIDE1,PEPTIDE1,2:R3-11:R3$$$V2.0” yielded an isolated mass of 10.55 mg and an isolated yield of 12.4%.

In series [1] (scale 25 µmol), “PEPTIDE1{[Butoc].[Cys].[Cit].Q.Y.F.P.[dA].I.L.[Cys].[am]}$PEPTIDE1,PEPTIDE1,2:R3-11:R3$$$V2.0” gave an isolated mass of 2.15 mg and an isolated yield of 6.6%.

For the substance “PEPTIDE1{[DOTA].[O2Oc].L.[Cys].[Cit].Q.Y.F.P.P.I.L.[Cys].[am]}$PEPTIDE1,PEPTIDE1,4:R3-13:R3$$$V2.0”, in series [1] (scale 50 µmol), the isolated mass came to 17.68 mg and the isolated yield is listed as 18.8%.

Take “PEPTIDE1{[Glutar].[Cys].[Cit].Q.Y.F.P.[dA].I.L.[Cys].[am]}$PEPTIDE1,PEPTIDE1,2:R3-11:R3$$$V2.0”: in series [1] (scale 25 µmol), the isolated mass was found to be 6.76 mg and the isolated yield was determined as 20.4%.

With “PEPTIDE1{[Me].[Nml].[Cys].R.Q.Y.F.P.[Hyp].I.[Nva].[Cys].[am]}$PEPTIDE1,PEPTIDE1,3:R3-12:R3$$$V2.0”, in series [1] (scale 50 µmol), the isolated mass amounted to 6.30 mg and the isolated yield worked out at 9.1%.

In series [1] (scale 25 µmol), “PEPTIDE1{[NEtg].[Cys].[Cit].Q.Y.F.P.[dA].I.L.[Cys].[am]}$PEPTIDE1,PEPTIDE1,2:R3-11:R3$$$V2.0” yielded an isolated mass of 1.08 mg and an isolated yield of 3.3%.

As to “PEPTIDE1{[Pent].A.[Cit].Q.Y.F.P.[Hyp].I.[Nva].[Smc].[am]}$$$$V2.0”, in series [1] (scale 25 µmol), the isolated mass stood at 8.48 mg and the isolated yield is listed as 25.9%.

In the case of “PEPTIDE1{[Pent].C.[Cit].K.Y.F.P.[Hyp].I.[Nva].C.[am]}|PEPTIDE2{[DOTA].[PEG12]}$PEPTIDE1,PEPTIDE1,2:R3-11:R3|PEPTIDE1,PEPTIDE2,4:R3-2:R2$$$V2.0”, in series [1] (scale 50 µmol), the isolated mass is 9.98 mg and the isolated yield came to 8.6%.

Regarding “PEPTIDE1{[Pent].C.[Cit].K.Y.F.P.[Nmk].I.[Nva].C.[am]}|PEPTIDE2{[Bio].[Ttds]}$PEPTIDE1,PEPTIDE1,2:R3-11:R3|PEPTIDE1,PEPTIDE2,4:R3-2:R2$$$V2.0”, in series [1] (scale 50 µmol), the isolated mass came to 3.91 mg and the isolated yield is listed as 4.2%.

“PEPTIDE1{[Pent].C.[Orn].K.Y.F.P.[Hyp].I.[Nva].C.[am]}|CHEM1{[TrisPEG]}|CHEM2{[DOTA]}$PEPTIDE1,PEPTIDE1,2:R3-11:R3|PEPTIDE1,CHEM1,3:R3-1:R2|PEPTIDE1,CHEM2,4:R3-1:R2$$$V2.0”: the conjugation yield in series [2] is recorded as 41.3% of theory.

For “PEPTIDE1{[Pent].C.[Orn].K.Y.F.P.[Hyp].I.[Nva].C.[am]}|PEPTIDE2{[DOTA]}|PEPTIDE3{[TrisNtaTris]}$PEPTIDE1,PEPTIDE1,2:R3-11:R3|PEPTIDE1,PEPTIDE2,4:R3-1:R2|PEPTIDE1,PEPTIDE3,3:R3-1:R2$$$V2.0”, in series [1] (scale 50 µmol), the isolated mass stood at 5.44 mg and the isolated yield came out at 5.3%.

In series [1] (scale 50 µmol), “PEPTIDE1{[Pent].[Cys(meth)].[Cit].Q.Y.F.P.[Hyp].I.[Nva].C.[am]}$PEPTIDE1,PEPTIDE1,2:R3-11:R3$$$V2.0” registered an isolated mass of 3.73 mg and an isolated yield of 5.6%.

As for “PEPTIDE1{[Pent].[Cys].R.Q.Y.F.P.[Hyp].I.[Nva].[AET]}$PEPTIDE1,PEPTIDE1,2:R3-11:R3$$$V2.0”, in series [4], the isolated mass came to 6.22 mg and the isolated yield worked out at 19.4%.

As for “PEPTIDE1{[Pent].[Cys].[Cit].Q.Y.F.P.[Hyp].I.[Nva].[Cys].[NHEt]}$PEPTIDE1,PEPTIDE1,2:R3-11:R3$$$V2.0”, in series [5], the isolated mass stood at 0.96 mg and the isolated yield amounted to 2.8%.

For the substance “PEPTIDE1{[Pent].[Cys].[Cit].Q.Y.F.P.[Hyp].I.[Nva].[Cysol]}$PEPTIDE1,PEPTIDE1,2:R3-11:R3$$$V2.0”, in series [6], the isolated mass is listed as 1.38 mg and the isolated yield turned out to be 4.2%.

In series [1] (scale 25 µmol), “PEPTIDE1{[Pent].[Cys].[Cit].Q.Y.F.P.[dA].I.L.[Cys].[am]}$PEPTIDE1,PEPTIDE1,2:R3-11:R3$$$V2.0” returned an isolated mass of 5.30 mg and an isolated yield of 16.4%.

Regarding “PEPTIDE1{[PentylSO2].[Cys].R.Q.Y.F.P.[Hyp].I.[Nva].[Cys].[am]}$PEPTIDE1,PEPTIDE1,2:R3-11:R3$$$V2.0”, in series [1] (scale 50 µmol), the isolated mass was found to be 10.13 mg and the isolated yield is 14.8%.

In series [1] (scale 25 µmol), “PEPTIDE1{[ac].[Phg].[Cys].R.Q.Y.F.P.[Hyp].I.[Nva].[Cys].[am]}$PEPTIDE1,PEPTIDE1,3:R3-12:R3$$$V2.0” had an isolated mass of 4.86 mg and an isolated yield of 13.8%.

As for “PEPTIDE1{[iHex].[Cys].[Cit].Q.Y.F.P.[dA].I.L.[Cys]}$PEPTIDE1,PEPTIDE1,2:R3-11:R3$$$V2.0”, in series [7], the isolated mass was determined as 5.10 mg and the isolated yield amounted to 15.6%.

In series [1] (scale 25 µmol), “PEPTIDE1{[iHex].[Cys].[Cit].Q.[Mcy].F.P.[dA].I.L.[Cys].[am]}$PEPTIDE1,PEPTIDE1,2:R3-11:R3$$$V2.0” displayed an isolated mass of 2.06 mg and an isolated yield of 6.1%.

In the case of “PEPTIDE1{[iHex].[Cys].[Lys_DOTA_].Q.Y.F.P.P.I.L.[Cys].[am]}$PEPTIDE1,PEPTIDE1,2:R3-11:R3$$$V2.0”, in series [1] (scale 50 µmol), the isolated mass came to 13.14 mg and the isolated yield came to 15.5%.

In series [1] (scale 50 µmol), “PEPTIDE1{[nBuCAyl].[Cys].T.[Lys_DOTA_].Y.F.P.[Hyp].I.[Nva].[Cys].[am]}$PEPTIDE1,PEPTIDE1,2:R3-11:R3$$$V2.0” came in with an isolated mass of 15.38 mg and an isolated yield of 18.4%.

On to “PEPTIDE1{[nBuCAyl].[Cys].[Cit].Q.Y.F.P.[dA].I.L.[Cys].[am]}$PEPTIDE1,PEPTIDE1,2:R3-11:R3$$$V2.0”, for which, in series [1] (scale 25 µmol), the isolated mass is given as 4.59 mg and the isolated yield is 14.0%.

In the case of “Pent-Cys-Om(mPEG12)-Lys(DOTA)-Tyr-Phe-Pro-Hyp-Ile-Nva-Cys-NH2”, in series [1] (setting [11]), the isolated mass amounted to 8.49 mg and the isolated yield stood at 7.6%.

In series [1] (scale 25 µmol, thioether ring), “Pent-[Cys(2MeBn)-Arg-Gln-Tyr-Phe-Pro-Hyp-Ile-Nva-Cys]-NH2” had an isolated mass of 5.49 mg and an isolated yield of 15.4%.

In series [2] (one disulfide bridge), “Pent-[Cys-Cit-Lys(GdDOTA)-Tyr-Ocf-Pro-Hyp-Ile-Nva-Cys]-NH2” returned a step yield of 82.6%.

“Pent-[Cys-Glu(AGLU)-Gln-Tyr-Phe-Pro-Hyp-Ile-Nva-Cys]-NH2”: in series [1] (setting [9]), the isolated mass is 3.15 mg and the isolated yield turned out to be 8.6%.

As to “Pent-[Cys-Orn-Lys(DOTA)-Tyr-Phe-Pro-Hyp-Ile-Nva-Cys]-NHz”, in series [1] (scale 50 µmol), the isolated mass is reported as 18.89 mg and the isolated yield was 22.7% of theory.

In series [8], “Pent-[Dab-Arg-Gln-Tyr-Phe-Pro-Hyp-Ile-Nva-Glu]-NH2” returned an isolated mass of 2.00 mg and an isolated yield of 3.0%.
